According to patent US20240158442A1, “MULTIFUNCTIONAL POLYPEPTIDE AND APPLICATION THEREOF IN FIELD OF MEDICINES” (Wuhan Innerse Pharmaceutical Inc., priority 2021, published 2024):
Part of at least one peptide drawing is inferred or uncertain, most often the ends. Peptide text beside a SMILES is read from it.

Experiments:
[1] = tested on: rat cerebral ischemic stroke (MCAO, reperfusion 120 min after ischemia); test: Dose-effect experiment, suture-embolized MCAO ischemia-reperfusion model, TTC staining, cerebral infarction size (Example 6); type: in vivo, Sprague-Dawley (SD) rats; settings: for Infarct weight / Infarct size (infarct tissue weight as percentage of whole brain weight): TTC 24 h after treatment; for Infarct size (infarct tissue weight as percentage of whole brain weight): model control 24.84 ± 3.39; for Inhibition rate of cerebral infarction: calculated from infarct size versus model control group
[2] = tested on: rats with cerebral ischemia (middle cerebral artery occlusion, MCAO); test: MCAO rat model of cerebral ischemia, behavioral observation and scoring (Example 5); type: in vivo, SD rats; settings: 3 mg/kg via tail vein; for behavioral score, mean value: scored 22-24 h after suturation, scale 0-5, 6 rats per group
Method: (§1) In order to determine the application of the synthetic peptides provided by the present invention in neurological diseases, the present invention uses SD rats as experimental objects, and performs middle cerebral artery occlusion method (MCAO) to prepare rat model of cerebral ischemia. These rats were injected drugs intravenously 1-2 hours after ischemia, and a behavioral observation and scoring was conducted for each animal after 22-24 hours. After the behavioral observation, the experimental rats were euthanized and their brains were removed, cut to sections and stained with TTC for quantitative analysis, and the cerebral infarct volume % was calculated.
(§2) The experimental SD rat was weighed and anesthetized with chloral hydrate. After anesthesia, the limbs of the rat were fixed, and the rat was placed in a supine position, connected to the small-animal monitor, and monitored for important physiological parameters such as body temperature, blood pressure and heart rate, etc. The rat's neck was shaved and disinfected with 75% alcohol cotton ball. A middle incision of about 2 cm length was then made on the neck of the experimental rat, and the submandibular gland of the rat was bluntly separated while avoiding damage to the gland. Then, the left common carotid artery (CCA) of the experimental rat was bluntly separated, and the internal carotid artery (ICA) and external carotid artery (ECA) were carefully separated upward along the CCA. Any damage to vagus nerves was avoided during the separation. The CCA and ICA were clamped respectively with two artery clamps, and the distal end of the ECA was cut off and a silicone suture emboli was inserted into the ECA “port” to the ICA artery clamp, then the artery clamp was quickly loosened and the tip of the suture emboli was put in through the artery clamp quickly before clamping the ICA again. This step was repeated and the suture emboli was put in further until the black mark of the suture emboli reached the bifurcation of the ECA and ICA, and the tip of the suture emboli blocked the middle cerebral artery and then the ECA “port” and the suture emboli was tied tightly using a thread in order to prevent the “escape” of suture emboli or bleeding after the rat waked up. The artery clamps on the CCA and ICA were then loosed and removed to restore the tissue to its original position, and an appropriate amount of penicillin was applied to prevent wound infection. A medical suture needle with thread was used to suture, and the wound was disinfected using povidone-iodine again after the suturation. The experimental rats were monitored with the small-animal monitor to evaluate if their physiological parameters were normal, and the rats were placed on a small-animal electric blanket to keep their body temperature until they waked up, and placed in animal cages.
(§3) The drug to be tested was prepared as 3 mg/mL solution. The drug was dosed via tail vein 1-2 h after the suturation.
(§4) During the drug administration, the rat was fastened with a fastening device, and the drug to be tested was injected into the tail vein of the rat at 3 mg/kg using 1 mL syringe, the drug was injected slowly to reduce the cardiopulmonary load of the experimental rat.
(§5) The animals were divided into different test groups, with 6 rats for each group. Model group: After the suturation, an equal amount of normal saline was given via tail vein; Drug groups S1 (NA1), S4 (β-Ala-His-Lys-Ala-Pro) and S5 (Pro-Ala-Lys-β-Ala-His): administered via tail vein after the suturation;
The behavioral observation and scoring were performed on each animal 22-24h after the suturation.

[3] = tested on: rat cerebral ischemic stroke (MCAO, reperfusion 120 min after ischemia); test: Dose-effect experiment, MCAO ischemia-reperfusion model, rat neurological function score (NSS); type: in vivo, Sprague-Dawley (SD) rats; settings: D 2 = 1 day after surgery, model control 8.62 ± 0.84
Method: The establishment of rat model: the rats were placed in an anesthesia induction box filled with 3.0% isoflurane for anesthesia induction. Anesthesia-induced animals were transferred to the operating table, and anesthesia was maintained with 2.0%˜2.5% isoflurane at 200 mL/min using a small-animal gas anesthesia machine, and the eyelid reflex and pain response of the rats were observed. The surgery can be started only after the eyelid reflex response and the pain response on limbs and tail disappeared.
E. Performing cerebral reperfusion: the ischemic rat was placed at room temperature, and the anesthesia was induced 120 mins thereafter; the suture emboli was slowly and lightly drawn to pull the tip of suture emboli back into the external carotid artery while maintaining anesthesia, in order to perform the middle cerebral artery reperfusion;
Dosing frequency and cycle: dose once immediately (within 10 min) after reperfusion, and the day of surgery is defined as D1 (Day1).
• Measurement time: 24 hours before and after modeling; • Animals measured: all the surviving experimental animals planned to be measured; • Measurement method: a motor function test, sensory test, balance test, and reflex and abnormal behavior test were performed on animals, according to the rat neurological function score scale (NSS) for details.
The main purpose of clinical treatment for cerebral infarction is to restore the patient's neurological function as much as possible and to improve the quality of life after stroke. In this experiment, the animals were evaluated with Bederson scoring 1 hour after ischemia to evaluate the ischemia in animals. One day after modeling, the neurobehavioral function of animals was evaluated with NSS scoring scale in order to evaluate the effect of test substance in improving the neurological function of animals.

[4] = tested on: rats with cerebral ischemia (middle cerebral artery occlusion, MCAO); test: MCAO rat model of cerebral ischemia, TTC staining, cerebral infarct volume (Example 5); type: in vivo, SD rats; settings: for infarct volume (TTC quantification), mean value: 3 mg/kg via tail vein 1-2 h after suturation, TTC after 22-24 h, 6 rats per group
Method: as §1
• Small-animal monitor: VT200 from Rongxianda Technology Co., Ltd., Shenzhen, China. • SD rats: 180-200 g, from China National Institutes for Food and Drug Identification. • Suture emboli: Maiyue Bio (M8507). • TTC staining solution: Yuanye Bio (R24053).
as §2, §3, §4, §5
After the behavioral observation, experimental rats were euthanized and their brains were removed. […]

[5] = 0.6 mg/kg i.v. once within 10 min after reperfusion
[6] = 3 mg/kg i.v. once within 10 min after reperfusion
[7] = 15 mg/kg i.v. once within 10 min after reperfusion
[8] = listed as Pro-Ala-Lys-β-Ala-His

With `C[C@H](NC(=O)[C@@H]1CCCN1)C(=O)N[C@@H](CCCCN)C(=O)NCCC(=O)N[C@@H](Cc1c[nH]cn1)C(=O)O` [Example S5, Pro-Ala-Lys-β-Ala-His] (HELM PEPTIDE1{P.A.K.[bAla].H}$$$$V2.0) the Infarct weight [1, 5] was 0.28 ± 0.06 g, the “Infarct size (infarct tissue weight as percentage of whole brain weight)” value [1, 5] was 20.20±4.07% and the “Inhibition rate of cerebral infarction” value ([1]; 0.6 mg/kg i.v.) was 19%. The Infarct weight [1, 6] was 0.27 ± 0.04 g, the “Infarct size (infarct tissue weight as percentage of whole brain weight)” value [1, 6] was 18.76±2.50% and the “Inhibition rate of cerebral infarction” value ([1]; 3 mg/kg i.v.) was 24%. The Infarct weight [1, 7] was 0.21 ± 0.04 g, the “Infarct size (infarct tissue weight as percentage of whole brain weight)” value [1, 7] was 15.70±2.80% and the “Inhibition rate of cerebral infarction” value ([1]; 15 mg/kg i.v.) was 37%. For the same compound, the “dose dependence of the neuroprotective effect” value ([1]; 0.6, 3, 15 mg/kg i.v.) was “dose-dependent”, the neuroprotective effect ([1]; 0.6-15 mg/kg i.v., cerebral infarction size reduced versus model control) was “good neuroprotective effect” and the “onset dose (neuroprotective effect, cerebral infarction size)” value ([1]; i.v. once within 10 min after reperfusion, doses tested 0.6, 3, 15 mg/kg) was 0.6 mg/kg. For the same compound, the “therapeutic effect on ischemic stroke” value ([1]; summary of the drug efficacy evaluation in the MCAO model) was “significant therapeutic effect on ischemic stroke”, the “behavioral score, statistical comparison with S1” value ([2]; compared with S1 (NA1) 3 mg/kg) was “not statistically different from S1” and the “behavioral score, rat No. 1” value ([2]; individual animal No. 1) was 2 points. For the same compound, the “behavioral score, rat No. 2” value ([2]; individual animal No. 2) was 1 points, the “behavioral score, rat No. 3” value ([2]; individual animal No. 3) was 2 points and the “behavioral score, rat No. 4” value ([2]; individual animal No. 4) was 2 points. The “behavioral score, rat No. 5” value ([2]; individual animal No. 5) was 1 points, the “behavioral score, rat No. 6” value ([2]; individual animal No. 6) was 3 points and the “behavioral score, mean value” [2] was 1.8 points. The “behavioral score, mean value” [2, 8] was 1.8±0.8 points, the “NSS score D 2” value ([3]; 0.6 mg/kg i.v.) was 8.23±0.97 and the “NSS score D 2” value ([3]; 3 mg/kg i.v.) was 7.92±0.62. The “NSS score D 2” value ([3]; 15 mg/kg i.v.) was 7.85±0.66, the “infarct volume (TTC quantification), mean value” [4] was 0.147 and the “infarct volume (TTC quantification), mean value” [4, 8] was 0.147±0.051. For the same compound, the “infarct volume, statistical comparison with S1” value ([4]; 3 mg/kg via tail vein, compared with S1 (NA1) 3 mg/kg) was “not statistically different from S1”, the “infarct volume (TTC quantification), rat No. 1” value ([4]; 3 mg/kg via tail vein, individual animal No. 1) was 0.118 and the “infarct volume (TTC quantification), rat No. 2” value ([4]; 3 mg/kg via tail vein, individual animal No. 2) was 0.144. The “infarct volume (TTC quantification), rat No. 3” value ([4]; 3 mg/kg via tail vein, individual animal No. 3) was 0.113, the “infarct volume (TTC quantification), rat No. 4” value ([4]; 3 mg/kg via tail vein, individual animal No. 4) was 0.183 and the “infarct volume (TTC quantification), rat No. 5” value ([4]; 3 mg/kg via tail vein, individual animal No. 5) was 0.095. The “infarct volume (TTC quantification), rat No. 6” value ([4]; 3 mg/kg via tail vein, individual animal No. 6) was 0.230.
